AC50 data for 39 compounds are collected here from PubChem BioAssay AID445 (National Center for Advancing Translational Sciences (NCATS), 2006).

Some of the results follow. Further columns of the screen follow, without active or inactive calls. Most of these compounds were active or inconclusive in the main read-out, so they are no random draw. Potencies come from curve fits of mixed quality, noted in brackets.

Usually AC50 stands for the concentration giving half of the maximal activity seen.

The assay in a line: IkB Signaling. The conditions noted are these: ABC-DLBCL IkBa-CBG/CBR dual luciferase ratio (green luciferase fused to IkBa over red control in OCI-Ly3 lymphoma cells), 4 h. The essentials: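 Curves were fitted separately to fusion (green), unfused (red) and ratio luminescence, then classed by r2, magnitude and activity. Cells: OCI-Ly3, 4 h compound plus doxycycline at 37C; 10 uM MG-132 defined full response.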
The mark [1] stands for this setting: measured here: control luc red channel unless noted.
Where [2] appears, read: measured here: IkB-luc green channel.
The mark [3] stands for this setting: measured here: control luc red channel.

For the compound `Cc1ccc2onc(CC(=O)N3CCN(c4ccccc4F)CC3)c2c1`, the AC50 under setting [1] is 3.98 µM [falling, partial curve].

Turning to `COc1ccc(-c2onc(C)c2C)cc1S(=O)(=O)Nc1ccc(OC(F)(F)F)cc1`, the AC50 under setting [1] is 31.6 µM [falling, single point].

In the case of `Cc1ccc(CSc2oc(-c3ccco3)nc2S(=O)(=O)c2ccc(Cl)cc2)cc1`, the AC50 under setting [1] was 25.1 µM [falling, single point].

Turning to `CCOC(=O)c1cccc(NC(=O)c2cc(S(=O)(=O)N3CCCC3)cn2C)c1`, the AC50 under setting [1] is 31.6 µM [falling, single point].

Regarding `COc1ccc(OC)c(-c2cc(C(=O)Nc3c(C)nn(Cc4ccc(Cl)cc4)c3C)no2)c1`, the AC50 under setting [1] is 10 µM [falling, partial curve].

For the compound `O=C(Nc1nc(-c2ccc(Cl)s2)cs1)c1cccs1`, the AC50 under setting [1] is 5.01 µM [falling, partial curve].

For the compound `CCCOC(=O)c1ccc(NC(=O)Cn2nnc3sc4c(c3c2=O)CCC(C(C)(C)C)C4)cc1` (stereo unspecified), the AC50 under setting [1] was 39.8 µM [falling, single point].

`CC(=O)c1cc(-c2ccc(F)cc2)n(CC(=O)NC2CCCCCC2)c1C`: the half-maximal activity concentration (AC50) under setting [1] is 0.631 µM [rising, full curve, poor fit].

As to `COc1ccc(NC(=O)c2ccco2)cc1NC(=O)C(C)Oc1ccc(Cl)cc1Cl` (stereo unspecified), under setting [1], the AC50 was 10 µM [falling, partial curve].

For `Cc1nc(NC(=O)c2ccccc2)sc1-c1csc(NCc2ccco2)n1`, the AC50 under setting [1] is 10 µM [falling, partial curve].

On to `N#Cc1c(NC(=O)CSCC(=O)O)sc2c1CCCC2`, for which, under setting [1], the AC50 was 31.6 µM [falling, single point].

For the compound `CCCCOc1ccc(C2=NC(c3ccccc3)=Nc3ccc(OC)cc3N2)cc1`, under setting [1], the AC50 was 39.8 µM [falling, single point].

Take `Clc1ccccc1Cc1cn2cc(-c3ccccc3)nc2s1`: under setting [1], the AC50 was 0.02 µM [falling, full curve].

Turning to `C=CCc1c(C)nc2nc(SCC(=O)Nc3ccc(OCC)cc3)nn2c1C`, under setting [1], the AC50 was 39.8 µM [falling, single point].

Regarding `CC(C)c1ccc(Nc2ncnc3c2c(-c2ccccc2)cn3-c2ccccc2)cc1`, the AC50 under setting [1] was 10 µM [falling, partial curve].

In the case of `COc1ccccc1CNC(=O)Cn1nc(C)c2nn(-c3ccc(Cl)cc3)c(C)c2c1=O`, under setting [1], the AC50 is 0.00631 µM [falling, full curve, poor fit].

As for `CC(C)COc1ccccc1C1CC(=O)Nc2cc3c(cc21)OCO3` (stereo unspecified), the AC50 under setting [1] was 15.8 µM [falling, partial curve].

Turning to `Cc1ccc(NC(=O)c2ccc(F)c(S(=O)(=O)N3CCOCC3)c2)cc1F`, the AC50 under setting [1] was 15.8 µM [falling, partial curve].

On to `Clc1cccc(-n2ncc3c(N4CCN(Cc5ccccc5)CC4)ncnc32)c1`, for which the AC50 under setting [1] is 25.1 µM [falling, partial curve].

Consider `COc1cccc(CNC(=O)Cn2ccc3cc(S(=O)(=O)N4CCC(C)CC4)ccc32)c1`, for which the AC50 under setting [1] is 3.16 µM [falling, full curve].

On to `Cc1cc(C)cc(OCC(=O)N(Cc2ccc(C)o2)C2CCS(=O)(=O)C2)c1` (stereo unspecified), for which the AC50 under setting [1] was 39.8 µM [falling, single point].

For the compound `CCC(CC)C(=O)Nc1ccc2nc(SCC(=O)N3c4ccccc4CC3C)sc2c1` (stereo unspecified), the AC50 under setting [1] is 3.16 µM [falling, full curve].

`CCOC(=O)c1c(C)sc(-c2c(-c3ccc(OC)c(F)c3)[nH]c3c2c(=O)[nH]c(=O)n3C)c1O`: under setting [1], the AC50 is 15.8 µM [falling, partial curve].

Turning to `COc1ccc(Cl)cc1NC(=O)c1c(NCc2ccc(C)o2)sc2c1CCCC2`, the AC50 under setting [1] was 39.8 µM [falling, single point].

Consider `COc1cccc(N(CC(=O)N2CCC(C)CC2)S(=O)(=O)c2ccc(C)cc2)c1`, for which, under setting [1], the AC50 was 31.6 µM [falling, single point].

Turning to `COCCNC(=O)c1cc2c(Cl)nc3ccc(C)cc3c2s1`, the AC50 under setting [1] was 3.16 µM [rising, partial curve].

On to `Cc1ccc(CN(Cc2ccco2)C(=O)c2oc3c(C)c(C)ccc3c2C)cc1`, for which the AC50 under setting [1] is 10 µM [falling, partial curve].

On to `CCC(C)NC(=O)CSc1nc2cc3c(cc2c(=O)n1CCCC(=O)NCc1ccc2c(c1)OCO2)OCO3` (stereo unspecified), for which, under setting [1], the AC50 was 7.94 µM [rising, full curve].

As to `CN(C)c1ccc(C(=C2C=CC(=[N+](C)C)C=C2)c2ccccc2)cc1`, the AC50 is, setting by setting: under setting [2], 0.251 µM [falling, full curve, poor fit]; under setting [3], 0.0794 µM [falling, full curve].

Regarding `CCOC(=O)c1c(-c2ccccc2)oc2ccc(NS(=O)(=O)c3ccc(C(C)C)cc3)cc12`, the AC50 under setting [1] is 1 µM [falling, full curve].

For the compound `CCCCCn1c(=N)n(CC(O)COc2ccccc2OC)c2ccccc21` (stereo unspecified), the AC50 runs as follows: under setting [2], 10 µM [falling, partial curve]; under setting [3], 15.8 µM [falling, partial curve].

Regarding `COc1ccc(N2Cc3cccc(C(=O)NC(C)CCc4ccco4)c3C2=O)cc1` (stereo unspecified), under setting [1], the AC50 was 25.1 µM [falling, partial curve].

Regarding `Cc1ccc(Cn2nc(C)c(NC(=O)c3cc(-c4ccco4)on3)c2C)cc1`, under setting [1], the half-maximal activity concentration (AC50) is 15.8 µM [falling, partial curve].

Take `CCOc1ccc(CNC(=O)CCCn2c(=O)c3cccn3c3ccc(F)cc32)cc1`: the AC50 under setting [1] was 12.6 µM [falling, partial curve].

For the compound `Cn1c(=O)c(=O)n(C)c2cc(NC(=O)c3ccccc3Br)ccc21`, the AC50 under setting [1] is 3.98 µM [falling, single point].

Regarding `CC(=O)N1CCc2c(sc3c2c(=O)n(Cc2ccccc2)c(=O)n3CC(=O)Nc2ccc(C)c(F)c2)C1`, under setting [1], the AC50 was 12.6 µM [falling, partial curve].

Take `COc1ccc(CN2C(=O)C(NC(=O)c3ccccc3OC)(C(F)(F)F)N=C2c2ccccc2)cc1` (stereo unspecified): under setting [1], the AC50 is 10 µM [falling, partial curve].

Take `CCc1ccc(S(=O)(=O)c2nnn(-c3cccc(C)c3)c2N)cc1`: the half-maximal activity concentration (AC50) under setting [1] is 31.6 µM [falling, partial curve].

Consider `CCc1ccc(NC(=O)CCn2cnc3ccccc3c2=O)cc1`, for which, under setting [1], the AC50 was 39.8 µM [falling, single point].
